Measurements reported in PubChem BioAssay AID1053208 (Peter MacCallum Cancer Centre, 2014).

Screen: 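Find knock-downs that sensitise mouse osteosarcoma cells to doxorubicin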 (primary screen)
System: mouse osteosarcoma cells, early-passage culture from an engineered mouse model of fibroblastic bone tumour
Reagents: siRNA pool against mouse genes, 40 nM
Time to read-out: about 120 h (48 h before drug, then 72 h with drug)
Conditions: doxorubicin 100 nM for 72 h, roughly 30-40% inhibitory dose
Detection: 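Luminescent ATP signal taken as viability with or without 100 nM doxorubicin for 72 h; mean of two wells set against non-targeting siRNA and turned into robust z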
Direction: viability z-score with doxorubicin: higher = more viable cells under doxorubicin; viability z-score without drug: higher = more viable cells with knock-down alone
Hit rule: 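Called active if knock-down leaves viability unchanged without drug (z within -2 to 2) but lowers it with doxorubicin (z at or under -2)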
Shown is a random part of about 17,000 deposited reagents. Of all reagents, 788 (4.7%) got an active call. 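Calls rest on z-score classes alone; an extra cut-off of viability at most 70% of control was not applied to them.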 Entries without a mark were called inactive. Not all columns of the deposit are shown.

For Ap1g1, the entry reads combined z-score class no change with or without drug; viability z-score with doxorubicin 1.46; viability z-score without drug 1.18.
With knock-down of Phtf2, the record shows combined z-score class no change with or without drug; viability z-score with doxorubicin -0.45; viability z-score without drug -1.52.
Against Smad7, the entry reads combined z-score class high cell count with and without drug; viability z-score with doxorubicin 2.02; viability z-score without drug 2.36.
After knock-down of Tbc1d13 the results were combined z-score class no change with or without drug; viability z-score with doxorubicin 0.45; viability z-score without drug 0.
With knock-down of Or5bw2, the record shows combined z-score class no change with or without drug; viability z-score with doxorubicin 0.9; viability z-score without drug -0.17.
Silencing of Osgep gave: combined z-score class low cell count with doxorubicin only (active); viability z-score with doxorubicin -2.47; viability z-score without drug -1.85.
Knock-down of Cchcr1 came out at: combined z-score class no change with or without drug; viability z-score with doxorubicin 0.9; viability z-score without drug 1.18.
Fmo2 gave combined z-score class no change with or without drug; viability z-score with doxorubicin 0.22; viability z-score without drug 0.17.
Depletion of Tbcb came out at: combined z-score class no change with or without drug; viability z-score with doxorubicin -1.35; viability z-score without drug -1.18.
Against Kcng4 the deposit lists combined z-score class no change with or without drug; viability z-score with doxorubicin -0.22; viability z-score without drug -0.84.
After knock-down of Selenov, the screen gave combined z-score class low cell count without drug only; viability z-score with doxorubicin -0.22; viability z-score without drug -2.19.
After knock-down of Tlcd4 the results were combined z-score class no change with or without drug; viability z-score with doxorubicin -1.57; viability z-score without drug 0.51.
For Zbtb25, the entry reads combined z-score class no change with or without drug; viability z-score with doxorubicin 0.45; viability z-score without drug 1.01.
Silencing of Rmp24 came out at: combined z-score class no change with or without drug; viability z-score with doxorubicin -0.45; viability z-score without drug 0.17.
Silencing of Pglyrp3 gave: combined z-score class low cell count with doxorubicin only (active); viability z-score with doxorubicin -2.02; viability z-score without drug -0.84.
Nudt9 gave combined z-score class high cell count without drug only; viability z-score with doxorubicin 1.12; viability z-score without drug 2.02.
Tex101 scored combined z-score class no change with or without drug; viability z-score with doxorubicin -1.8; viability z-score without drug 0.51.
Silencing of Ccdc7a resulted in: combined z-score class high cell count without drug only; viability z-score with doxorubicin -0.67; viability z-score without drug 2.53.
After knock-down of Pfdn6, the screen gave combined z-score class no change with or without drug; viability z-score with doxorubicin 1.01; viability z-score without drug 0.51.
Knock-down of Slc30a3 came out at: combined z-score class no change with or without drug; viability z-score with doxorubicin 0; viability z-score without drug 1.01.
Against Dmc1, the entry reads combined z-score class no change with or without drug; viability z-score with doxorubicin 0.11; viability z-score without drug -1.18.
Against Krtap19-5, the values are combined z-score class no change with or without drug; viability z-score with doxorubicin -1.35; viability z-score without drug 0.
With knock-down of Phlda2, the record shows combined z-score class no change with or without drug; viability z-score with doxorubicin -0.56; viability z-score without drug -1.18.
4930412C18Rik scored combined z-score class no change with or without drug; viability z-score with doxorubicin -1.12; viability z-score without drug 1.18.
Or7g34 gave combined z-score class no change with or without drug; viability z-score with doxorubicin 0; viability z-score without drug 0.17.
Silencing of Rnf26 resulted in: combined z-score class no change with or without drug; viability z-score with doxorubicin 0.79; viability z-score without drug 0.51.
Pik3c2g scored combined z-score class no change with or without drug; viability z-score with doxorubicin -0.67; viability z-score without drug -1.18.
Against Ube2c, the entry reads combined z-score class no change with or without drug; viability z-score with doxorubicin -1.57; viability z-score without drug 0.51.
